PubChem BioAssay AID686937 – Drosophila RNAi Screening Center | 2013

Assay: 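Knock-downs that reduce output of a secreted reporter enzyme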 (primary screen)
Cells: Drosophila S2 cells expressing secreted horseradish peroxidase
Knock-down reagent: long dsRNA against Drosophila genes
Time to read-out: about 5.5 days (5 days dsRNA, then 12 h reporter induction)
Treatment: reporter expression induced after 5 days of dsRNA, read 12 h later; inducer not stated
Measured: 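After 5 days of dsRNA and 12 h of reporter induction, medium peroxidase read by chemiluminescence and scored as per-plate z-score; higher values mean more reporter released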
Direction: z-score: higher = more reporter secreted into medium
The deposit covers about 23,000 reagents; below is a random part of those with a known target gene and a result. 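Reduced-secretion tags in replicate 1 do not always agree with the z-scores; no criterion for assigning the tags was given.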 Reagents against one gene are numbered here. A plus sign joins genes that one reagent is predicted to hit. Not all columns of the deposit are shown. Not stated in the record: the amount of reagent.

z-score, replicate 1, by gene knocked down and reagent
CG13601: #1 0.18
Gprk1: #1 0.52; #2 -0.41
CG42329: #1 0.36; #2 0.12
pns: #1 0.36
CG5614: #1 0.57
MFS12: #1 0.46
CG8945: #1 0.16; #2 0.34
CG30275: #1 0.28
CG13046: #1 0.22
CG31522: #1 0.36
GstE14: #1 0.04
CG9164: #1 -0.62; #2 0.27
lectin-37Db: #1 0.39
Or65c: #1 0.92
CG4364: #1 0.06
CG11413 + CG4622: #1 0.16
Flad1: #1 0.22
bur: #1 0.24
U2af38: #1 -0.64
pAbp: #1 0.29
CG13454: #1 0.67
CG12773: #1 0.08
CG7987: #1 -0.12
Muc12Ea: #1 -0.97
Ip259: #1 -0.08
stv: #1 0.61; #2 0.36
Uba3: #1 0.13
mRpS9: #1 -0.42; #2 0.39
srp: #1 0; #2 -2.23
Rhp: #1 0.23
Golgin245: #1 0.16; #2 0.43

12 of these entries, reformatted.
gene knocked down	dsRNA no.	z-score, replicate 1
pns	1	0.36
CG5614	1	0.57
MFS12	1	0.46
CG8945	1	0.16
CG8945	2	0.34
CG30275	1	0.28
CG13046	1	0.22
CG31522	1	0.36
GstE14	1	0.04
CG9164	1	-0.62
CG9164	2	0.27
lectin-37Db	1	0.39

The listing continues:
z-score, replicate 1, by gene knocked down and reagent
Nf-YC: #1 -4.52
Dro: #1 0.47
Paip1: #1 -0.34
CG31100: #1 0.39; #2 0.09
spz5: #1 0.1
CG5225: #1 0.27
ProtA: #1 0.11
CG10383: #1 0.17
NT5E-2: #1 0.42
CG6330: #1 0.22
PCB: #1 0.41
MstProx + Mst84Da: #1 0.17
SamDC: #1 0.27
CG31759: #1 0.04
CG31751: #1 0.38; #2 0.35
dpr5: #1 0.19
Efhc1.2: #1 0.08
betaNACtes1: #1 0.42
CG5002: #1 0.36
CG8326: #1 0.15
TMEM216 + CG11760: #1 0.39
CG4849: #1 -4.19
CG34227: #1 0.22; #2 0.27
lap: #1 -2.62
m: #1 0.44
whd: #1 0.2
CSN1a: #1 0.18
Tat: #1 0.28
PhKgamma: #1 0.29
CG6683: #1 0.16
Cox10: #1 0.14
Ugt303B2: #1 0.44; #2 0.64
CG32369: #1 -0.04; #2 0.01
CG3609: #1 0.35
CR31958: #1 -0.01; #2 0.25
TTLL3B: #1 0.2
CG15125: #1 0.51
